Source: article PMC10011603
No constants are given. Whether binding was seen depends on the method and setting.

Chains of the proteins cited; added tags and fusions are not shown. Residues count along the entry.
UniProt P33176, residues 1-490: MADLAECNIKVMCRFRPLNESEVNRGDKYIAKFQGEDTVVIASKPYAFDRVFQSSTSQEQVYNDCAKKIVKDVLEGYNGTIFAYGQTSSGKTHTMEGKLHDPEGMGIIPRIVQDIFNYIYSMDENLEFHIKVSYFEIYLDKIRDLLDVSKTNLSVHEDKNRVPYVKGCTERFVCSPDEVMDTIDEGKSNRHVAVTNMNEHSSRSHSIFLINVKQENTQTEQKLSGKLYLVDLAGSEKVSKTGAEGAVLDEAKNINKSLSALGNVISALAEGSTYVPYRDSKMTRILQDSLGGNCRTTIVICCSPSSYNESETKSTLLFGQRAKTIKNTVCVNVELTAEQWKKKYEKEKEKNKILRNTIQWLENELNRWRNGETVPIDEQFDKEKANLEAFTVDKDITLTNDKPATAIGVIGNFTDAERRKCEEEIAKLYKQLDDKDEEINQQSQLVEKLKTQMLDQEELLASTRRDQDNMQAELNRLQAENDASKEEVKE
UniProt Q8IXI2, residues 1-592: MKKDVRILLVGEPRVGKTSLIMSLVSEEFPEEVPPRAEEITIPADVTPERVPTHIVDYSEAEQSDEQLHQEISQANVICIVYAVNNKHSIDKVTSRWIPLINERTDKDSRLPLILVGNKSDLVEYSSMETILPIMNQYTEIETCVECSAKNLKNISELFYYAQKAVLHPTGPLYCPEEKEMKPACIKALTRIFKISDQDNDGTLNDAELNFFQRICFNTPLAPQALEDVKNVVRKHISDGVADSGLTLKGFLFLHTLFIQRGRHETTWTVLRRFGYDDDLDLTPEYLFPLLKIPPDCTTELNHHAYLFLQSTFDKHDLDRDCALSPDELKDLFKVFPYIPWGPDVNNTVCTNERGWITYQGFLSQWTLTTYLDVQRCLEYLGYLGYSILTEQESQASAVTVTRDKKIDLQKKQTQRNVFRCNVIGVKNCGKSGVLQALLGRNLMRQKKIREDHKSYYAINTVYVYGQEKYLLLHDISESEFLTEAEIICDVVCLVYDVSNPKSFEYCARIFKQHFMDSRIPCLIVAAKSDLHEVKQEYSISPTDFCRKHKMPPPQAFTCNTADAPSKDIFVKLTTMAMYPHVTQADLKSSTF

Key:
[1] = biological target: KIF5B^1–490 (human) (UniProt P33176); assay: co-IP; purified KIF5B 1-490 and Miro1 1-592-SNAPf-StrepII, 10 µg each, GFP-Trap beads, with and without 2 mM Ca2+; no TRAK, no MAP7; both purified
[2] = biological target: T1, TRAK2^1–360 (human) (UniProt O60296); assay: co-IP; purified proteins, 10 µg each, premixed on ice; KIF5B-GFP-SNAPf with TRAK1 1-360 or TRAK2 1-360 on GFP-Trap beads; MB buffer (30 mM HEPES, 5 mM MgSO4, 1 mM EGTA, pH 7.0) with 100 mM NaCl, 1 mg/ml BSA; 2 h on ice; with or without 10 nM MAP7; in Fig. 5b Miro1 1-592 added; both purified
T1 sequence (chain, LD555 or LD655 dye on the SNAP-tag in motility assays): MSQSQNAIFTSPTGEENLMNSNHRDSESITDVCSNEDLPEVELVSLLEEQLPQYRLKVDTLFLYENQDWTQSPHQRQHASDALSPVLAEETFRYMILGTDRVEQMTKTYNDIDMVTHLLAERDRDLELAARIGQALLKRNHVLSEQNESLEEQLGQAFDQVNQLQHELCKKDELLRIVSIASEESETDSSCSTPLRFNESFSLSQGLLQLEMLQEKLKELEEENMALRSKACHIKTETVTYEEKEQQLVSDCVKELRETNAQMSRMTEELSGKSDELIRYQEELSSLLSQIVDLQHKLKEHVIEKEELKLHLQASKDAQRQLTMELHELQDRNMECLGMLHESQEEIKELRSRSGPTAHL

## Miro1^1–592 (Miro1^1–592-SNAP-psc-StrepII) (from UniProt Q8IXI2 1-592) (domain or fragment)
[1]
  binding: no binding (tested: 10 µg of each protein)
[2]
  binding: no binding (tested: 10 µg of each protein)
